Data reported in article PMC8674125, “Analysis of Il36a induction by C/EBPβ via a half-CRE•C/EBP element in murine macrophages in dependence of its CpG methylation level”.
Construct, isoform or probe ends are uncertain for at least one entry. Where cells or extracts were used, other partners may take part.

By UniProt entry, the sequences of proteins in these tests, tags left out. Where a name states a change or a piece, a line headed by the entry shows the natural chain unless it says otherwise.
UniProt P28033: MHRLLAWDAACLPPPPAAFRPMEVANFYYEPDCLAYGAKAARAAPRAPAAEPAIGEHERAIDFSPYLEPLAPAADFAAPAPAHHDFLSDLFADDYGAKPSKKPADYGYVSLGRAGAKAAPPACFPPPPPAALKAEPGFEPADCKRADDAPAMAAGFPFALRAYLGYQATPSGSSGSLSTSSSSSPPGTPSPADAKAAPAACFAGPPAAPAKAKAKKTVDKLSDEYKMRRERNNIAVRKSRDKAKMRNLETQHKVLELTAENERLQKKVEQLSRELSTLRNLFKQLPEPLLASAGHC
UniProt Q00322, whole entry, stated change not applied: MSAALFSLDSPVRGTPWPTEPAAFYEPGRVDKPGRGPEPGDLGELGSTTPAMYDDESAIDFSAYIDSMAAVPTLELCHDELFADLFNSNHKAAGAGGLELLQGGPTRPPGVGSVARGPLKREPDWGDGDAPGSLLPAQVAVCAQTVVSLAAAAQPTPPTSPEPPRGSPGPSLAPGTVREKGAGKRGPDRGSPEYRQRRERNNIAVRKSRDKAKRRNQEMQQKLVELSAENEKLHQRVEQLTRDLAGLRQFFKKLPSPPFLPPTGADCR

How the values were obtained:
Experiment in all cases: EMSA supershift
[1] = target: C/EBPβ (mouse (RAW264.7)) (UniProt P28033); settings: RAW264.7 nuclear extract, LPS 4 h, protein in an extract, label: 32P-dCTP by Klenow fill-in
[2] = target: C/EBPβ (mouse (primary BMDM)) (UniProt P28033); settings: BMDM nuclear extract, LPS 4 h, protein in an extract, label: 32P-dCTP by Klenow fill-in
[3] = target: C/EBPδ (mouse (RAW264.7)) (UniProt Q00322); settings: RAW264.7 nuclear extract, LPS 4 h, protein in an extract, label: 32P-dCTP by Klenow fill-in
[4] = target: C/EBPδ (mouse (primary BMDM)) (UniProt Q00322); settings: BMDM nuclear extract, LPS 4 h, minor extent, protein in an extract, label: 32P-dCTP by Klenow fill-in
[5] = 5-methyl-C (mC) at position 18 of strand 1 and position 14 of strand 2

Measured: binding result

TCAGGTACTTCATCTTACGTCACCTAGT / TCAGACTAGGTGACGTAAGATGAAGTAC [half-CRE•C/EBP_Il36a EMSA probe, methylated]
binds: [1]; [5] | [2]; [5] | [3]; [5] | [4]; [5]

TCAGGTACTTCATCTTACGTCACCTAGT / TCAGACTAGGTGACGTAAGATGAAGTAC [half-CRE•C/EBP_Il36a EMSA probe, unmethylated]
binds: [1] | [2] | [3]; present to a certain extent | [4]
